Source: PMC11564579
These are yes or no findings as the source states them, for the method shown. Binding seen in cells or lysates may run through a third protein. Some results given as binding are weak or reduced against the parent protein; the word gives no strength. One block for each substance: values may come before it.

The chains behind the UniProt entries cited, without tags or fusion partners. Where a name states a change or a piece, a line headed by the entry shows the natural chain unless it says otherwise. Residues count along the entry.
UniProt O43791: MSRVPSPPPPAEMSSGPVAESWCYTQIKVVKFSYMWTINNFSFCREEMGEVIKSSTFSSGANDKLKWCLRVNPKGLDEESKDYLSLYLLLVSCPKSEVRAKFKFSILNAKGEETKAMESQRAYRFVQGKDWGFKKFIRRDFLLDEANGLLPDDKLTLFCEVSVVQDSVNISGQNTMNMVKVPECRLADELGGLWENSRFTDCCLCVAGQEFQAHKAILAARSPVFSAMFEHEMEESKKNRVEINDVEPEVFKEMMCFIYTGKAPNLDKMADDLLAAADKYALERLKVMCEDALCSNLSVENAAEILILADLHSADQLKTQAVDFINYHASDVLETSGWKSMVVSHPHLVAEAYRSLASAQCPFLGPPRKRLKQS
Speckle-type POZ protein (SPOP), wild type: residues 28-337 of O43791
UniProt Q9P1W9: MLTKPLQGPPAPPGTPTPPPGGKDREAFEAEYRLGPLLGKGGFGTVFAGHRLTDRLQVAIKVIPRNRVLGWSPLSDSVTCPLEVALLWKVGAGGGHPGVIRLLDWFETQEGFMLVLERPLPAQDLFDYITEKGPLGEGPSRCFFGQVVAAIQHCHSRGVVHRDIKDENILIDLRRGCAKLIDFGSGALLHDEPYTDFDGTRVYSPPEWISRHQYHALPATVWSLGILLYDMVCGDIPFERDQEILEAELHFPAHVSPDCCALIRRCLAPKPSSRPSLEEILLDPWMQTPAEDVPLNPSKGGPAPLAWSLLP
UniProt P28482: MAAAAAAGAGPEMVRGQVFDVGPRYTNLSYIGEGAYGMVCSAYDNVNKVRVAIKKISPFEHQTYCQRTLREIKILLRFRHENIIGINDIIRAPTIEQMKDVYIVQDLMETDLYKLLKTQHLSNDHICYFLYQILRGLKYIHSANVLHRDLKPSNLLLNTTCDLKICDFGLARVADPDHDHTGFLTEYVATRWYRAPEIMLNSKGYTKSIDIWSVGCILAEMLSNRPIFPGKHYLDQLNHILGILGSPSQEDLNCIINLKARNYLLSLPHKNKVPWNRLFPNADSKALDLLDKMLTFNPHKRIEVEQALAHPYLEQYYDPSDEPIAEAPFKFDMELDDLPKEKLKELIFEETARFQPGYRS
UniProt P27361: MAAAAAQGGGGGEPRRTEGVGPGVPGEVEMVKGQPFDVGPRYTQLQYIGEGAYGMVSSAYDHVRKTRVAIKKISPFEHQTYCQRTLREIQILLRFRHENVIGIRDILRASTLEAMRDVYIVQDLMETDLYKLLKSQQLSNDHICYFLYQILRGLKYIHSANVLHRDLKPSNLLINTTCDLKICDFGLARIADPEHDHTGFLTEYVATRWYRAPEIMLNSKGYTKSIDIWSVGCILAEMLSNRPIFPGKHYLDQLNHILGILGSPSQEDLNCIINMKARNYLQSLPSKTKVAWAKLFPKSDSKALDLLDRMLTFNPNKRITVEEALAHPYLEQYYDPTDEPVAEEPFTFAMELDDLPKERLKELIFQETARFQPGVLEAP
UniProt P11309: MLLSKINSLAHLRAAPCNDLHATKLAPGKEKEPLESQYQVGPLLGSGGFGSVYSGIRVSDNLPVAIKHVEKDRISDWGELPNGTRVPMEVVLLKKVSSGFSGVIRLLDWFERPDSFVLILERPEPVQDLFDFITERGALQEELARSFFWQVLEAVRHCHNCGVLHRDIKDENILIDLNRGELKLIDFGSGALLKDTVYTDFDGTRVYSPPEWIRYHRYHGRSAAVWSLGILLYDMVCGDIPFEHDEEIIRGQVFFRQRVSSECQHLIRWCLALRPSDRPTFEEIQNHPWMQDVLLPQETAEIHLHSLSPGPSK
UniProt Q9Y572: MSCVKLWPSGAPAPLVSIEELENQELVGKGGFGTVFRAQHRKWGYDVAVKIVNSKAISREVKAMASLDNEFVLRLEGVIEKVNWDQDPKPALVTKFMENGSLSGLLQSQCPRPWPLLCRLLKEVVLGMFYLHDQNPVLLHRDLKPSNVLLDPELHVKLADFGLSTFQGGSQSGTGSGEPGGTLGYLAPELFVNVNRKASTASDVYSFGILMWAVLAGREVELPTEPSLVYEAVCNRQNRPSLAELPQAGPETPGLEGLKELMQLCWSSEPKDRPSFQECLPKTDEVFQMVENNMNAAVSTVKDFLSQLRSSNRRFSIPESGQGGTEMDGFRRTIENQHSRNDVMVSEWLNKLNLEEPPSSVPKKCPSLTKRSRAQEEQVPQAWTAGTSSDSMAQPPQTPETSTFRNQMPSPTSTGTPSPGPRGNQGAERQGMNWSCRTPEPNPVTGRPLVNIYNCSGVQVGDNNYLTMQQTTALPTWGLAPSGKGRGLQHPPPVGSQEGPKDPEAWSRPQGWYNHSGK
UniProt Q13546: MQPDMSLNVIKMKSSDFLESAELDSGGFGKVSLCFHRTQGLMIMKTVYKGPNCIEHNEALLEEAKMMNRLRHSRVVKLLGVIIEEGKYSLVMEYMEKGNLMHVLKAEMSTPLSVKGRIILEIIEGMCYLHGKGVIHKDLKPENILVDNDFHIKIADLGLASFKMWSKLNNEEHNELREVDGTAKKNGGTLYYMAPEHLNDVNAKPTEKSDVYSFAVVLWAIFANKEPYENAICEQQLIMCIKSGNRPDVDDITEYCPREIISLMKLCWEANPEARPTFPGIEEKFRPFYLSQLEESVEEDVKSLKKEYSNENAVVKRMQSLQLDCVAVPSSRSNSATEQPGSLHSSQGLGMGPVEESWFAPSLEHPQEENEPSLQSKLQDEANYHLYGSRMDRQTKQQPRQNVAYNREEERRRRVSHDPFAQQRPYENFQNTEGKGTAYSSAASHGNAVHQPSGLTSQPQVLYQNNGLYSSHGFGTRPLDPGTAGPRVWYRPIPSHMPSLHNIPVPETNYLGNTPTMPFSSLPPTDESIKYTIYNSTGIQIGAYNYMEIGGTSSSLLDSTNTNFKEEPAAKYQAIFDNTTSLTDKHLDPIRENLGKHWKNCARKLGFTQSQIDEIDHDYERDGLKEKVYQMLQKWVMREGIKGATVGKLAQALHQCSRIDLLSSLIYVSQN

What was measured:
[1] = target: SPOP, endogenous in HT-29 cells (human (endogenous in HT-29)) (UniProt O43791); assay: co-IP; endogenous proteins; 1 mg HT-29 lysate with 5 µg pre-immune or SPOP antibody, overnight; western blot
[2] = target: PIM2 (UniProt Q9P1W9); assay: co-IP; HEK293T lysates (300-400 µg) expressing tag-fusion proteins; overnight at 4 °C with protein G-Sepharose and 2 µg antibody; wash 20 mM Tris pH 8.0, 100 mM NaCl, 1 mM EDTA, 0.5% NP-40; western blot; for RIPK3-SPOP also lysates treated with λ protein phosphatase (interaction reduced) and cells treated with GF109203X, CHIR99021 or AZD8055 (interaction not lost)
[3] = target: Speckle-type POZ protein (SPOP), wild type (UniProt O43791); assay: as above
[4] = target: ERK2 (UniProt P28482); assay: as above
[5] = target: T1, KLHL2 (UniProt O95198); assay: as above
T1 sequence: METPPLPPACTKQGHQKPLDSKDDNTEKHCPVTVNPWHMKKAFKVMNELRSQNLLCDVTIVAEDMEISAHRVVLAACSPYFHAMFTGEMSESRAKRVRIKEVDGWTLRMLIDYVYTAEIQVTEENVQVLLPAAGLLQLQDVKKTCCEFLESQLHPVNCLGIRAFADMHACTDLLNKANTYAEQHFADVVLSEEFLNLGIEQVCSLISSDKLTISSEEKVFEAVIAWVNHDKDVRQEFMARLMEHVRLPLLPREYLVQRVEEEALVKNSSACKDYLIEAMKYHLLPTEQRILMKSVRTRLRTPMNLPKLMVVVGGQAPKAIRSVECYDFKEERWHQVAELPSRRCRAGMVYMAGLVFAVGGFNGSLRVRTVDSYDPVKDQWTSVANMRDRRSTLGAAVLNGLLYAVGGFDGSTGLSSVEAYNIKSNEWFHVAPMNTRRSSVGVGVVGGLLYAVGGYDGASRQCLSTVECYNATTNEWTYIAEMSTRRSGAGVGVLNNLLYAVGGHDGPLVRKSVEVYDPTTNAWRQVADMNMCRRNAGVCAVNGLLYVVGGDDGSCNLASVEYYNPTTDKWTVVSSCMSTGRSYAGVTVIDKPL

[6] = target: ERK1 (UniProt P27361); assay: as above
[7] = target: PIM1 (UniProt P11309); assay: as above
[8] = target: Speckle-type POZ protein (SPOP), wild type (UniProt O43791); assay: condition: only cells treated with AZD1208 (pan-PIM inhibitor); co-IP; HEK293T cells treated with AZD1208 (pan-PIM inhibitor); IP and western blot
[9] = target: Speckle-type POZ protein (SPOP), wild type (UniProt O43791); assay: condition: only cells treated with U0126 (MEK/ERK inhibitor); co-IP; HEK293T cells treated with U0126 (MEK/ERK inhibitor); IP and western blot

binding [1]: binds
Substance: RIPK3, endogenous in HT-29 cells (from UniProt Q9Y572 1-518)

binding [2]: no binding
Substance: RIPK3-T403A (from UniProt Q9Y572 1-518)

binding [3]: no binding
Substance: receptor-interacting serine/threonine kinase 1 (RIPK1) (from UniProt Q13546 1-671)

binding [4]: binds | binding [3]: binds | binding [5]: binds weakly | binding [6]: no binding | binding [2]: binds | binding [7]: no binding | binding [8]: no binding | binding [9]: no binding
Substance: receptor-interacting serine/threonine kinase 3 (RIPK3), wild type (from UniProt Q9Y572 1-518)
